# Reference: the supplement of paper PMC12067093, “Discovery and optimisation of a covalent ligand for TRIM25 and its application to targeted protein ubiquitination” (Chemical Science, 2025)
# Protein sequences, listed by entry. Tags and fused reporters are not part of them. Lines headed by an entry give the natural chain unless they say otherwise; changes in a name come on top.
# UniProt Q96CP2: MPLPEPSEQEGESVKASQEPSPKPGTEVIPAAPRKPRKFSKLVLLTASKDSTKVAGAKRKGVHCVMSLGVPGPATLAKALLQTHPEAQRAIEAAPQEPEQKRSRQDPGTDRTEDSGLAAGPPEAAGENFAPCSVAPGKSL
# UniProt P62942, whole entry, looked up: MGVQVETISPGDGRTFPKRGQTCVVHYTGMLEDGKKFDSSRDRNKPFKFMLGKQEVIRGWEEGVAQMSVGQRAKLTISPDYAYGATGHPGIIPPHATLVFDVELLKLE
# UniProt O75369, whole entry, looked up: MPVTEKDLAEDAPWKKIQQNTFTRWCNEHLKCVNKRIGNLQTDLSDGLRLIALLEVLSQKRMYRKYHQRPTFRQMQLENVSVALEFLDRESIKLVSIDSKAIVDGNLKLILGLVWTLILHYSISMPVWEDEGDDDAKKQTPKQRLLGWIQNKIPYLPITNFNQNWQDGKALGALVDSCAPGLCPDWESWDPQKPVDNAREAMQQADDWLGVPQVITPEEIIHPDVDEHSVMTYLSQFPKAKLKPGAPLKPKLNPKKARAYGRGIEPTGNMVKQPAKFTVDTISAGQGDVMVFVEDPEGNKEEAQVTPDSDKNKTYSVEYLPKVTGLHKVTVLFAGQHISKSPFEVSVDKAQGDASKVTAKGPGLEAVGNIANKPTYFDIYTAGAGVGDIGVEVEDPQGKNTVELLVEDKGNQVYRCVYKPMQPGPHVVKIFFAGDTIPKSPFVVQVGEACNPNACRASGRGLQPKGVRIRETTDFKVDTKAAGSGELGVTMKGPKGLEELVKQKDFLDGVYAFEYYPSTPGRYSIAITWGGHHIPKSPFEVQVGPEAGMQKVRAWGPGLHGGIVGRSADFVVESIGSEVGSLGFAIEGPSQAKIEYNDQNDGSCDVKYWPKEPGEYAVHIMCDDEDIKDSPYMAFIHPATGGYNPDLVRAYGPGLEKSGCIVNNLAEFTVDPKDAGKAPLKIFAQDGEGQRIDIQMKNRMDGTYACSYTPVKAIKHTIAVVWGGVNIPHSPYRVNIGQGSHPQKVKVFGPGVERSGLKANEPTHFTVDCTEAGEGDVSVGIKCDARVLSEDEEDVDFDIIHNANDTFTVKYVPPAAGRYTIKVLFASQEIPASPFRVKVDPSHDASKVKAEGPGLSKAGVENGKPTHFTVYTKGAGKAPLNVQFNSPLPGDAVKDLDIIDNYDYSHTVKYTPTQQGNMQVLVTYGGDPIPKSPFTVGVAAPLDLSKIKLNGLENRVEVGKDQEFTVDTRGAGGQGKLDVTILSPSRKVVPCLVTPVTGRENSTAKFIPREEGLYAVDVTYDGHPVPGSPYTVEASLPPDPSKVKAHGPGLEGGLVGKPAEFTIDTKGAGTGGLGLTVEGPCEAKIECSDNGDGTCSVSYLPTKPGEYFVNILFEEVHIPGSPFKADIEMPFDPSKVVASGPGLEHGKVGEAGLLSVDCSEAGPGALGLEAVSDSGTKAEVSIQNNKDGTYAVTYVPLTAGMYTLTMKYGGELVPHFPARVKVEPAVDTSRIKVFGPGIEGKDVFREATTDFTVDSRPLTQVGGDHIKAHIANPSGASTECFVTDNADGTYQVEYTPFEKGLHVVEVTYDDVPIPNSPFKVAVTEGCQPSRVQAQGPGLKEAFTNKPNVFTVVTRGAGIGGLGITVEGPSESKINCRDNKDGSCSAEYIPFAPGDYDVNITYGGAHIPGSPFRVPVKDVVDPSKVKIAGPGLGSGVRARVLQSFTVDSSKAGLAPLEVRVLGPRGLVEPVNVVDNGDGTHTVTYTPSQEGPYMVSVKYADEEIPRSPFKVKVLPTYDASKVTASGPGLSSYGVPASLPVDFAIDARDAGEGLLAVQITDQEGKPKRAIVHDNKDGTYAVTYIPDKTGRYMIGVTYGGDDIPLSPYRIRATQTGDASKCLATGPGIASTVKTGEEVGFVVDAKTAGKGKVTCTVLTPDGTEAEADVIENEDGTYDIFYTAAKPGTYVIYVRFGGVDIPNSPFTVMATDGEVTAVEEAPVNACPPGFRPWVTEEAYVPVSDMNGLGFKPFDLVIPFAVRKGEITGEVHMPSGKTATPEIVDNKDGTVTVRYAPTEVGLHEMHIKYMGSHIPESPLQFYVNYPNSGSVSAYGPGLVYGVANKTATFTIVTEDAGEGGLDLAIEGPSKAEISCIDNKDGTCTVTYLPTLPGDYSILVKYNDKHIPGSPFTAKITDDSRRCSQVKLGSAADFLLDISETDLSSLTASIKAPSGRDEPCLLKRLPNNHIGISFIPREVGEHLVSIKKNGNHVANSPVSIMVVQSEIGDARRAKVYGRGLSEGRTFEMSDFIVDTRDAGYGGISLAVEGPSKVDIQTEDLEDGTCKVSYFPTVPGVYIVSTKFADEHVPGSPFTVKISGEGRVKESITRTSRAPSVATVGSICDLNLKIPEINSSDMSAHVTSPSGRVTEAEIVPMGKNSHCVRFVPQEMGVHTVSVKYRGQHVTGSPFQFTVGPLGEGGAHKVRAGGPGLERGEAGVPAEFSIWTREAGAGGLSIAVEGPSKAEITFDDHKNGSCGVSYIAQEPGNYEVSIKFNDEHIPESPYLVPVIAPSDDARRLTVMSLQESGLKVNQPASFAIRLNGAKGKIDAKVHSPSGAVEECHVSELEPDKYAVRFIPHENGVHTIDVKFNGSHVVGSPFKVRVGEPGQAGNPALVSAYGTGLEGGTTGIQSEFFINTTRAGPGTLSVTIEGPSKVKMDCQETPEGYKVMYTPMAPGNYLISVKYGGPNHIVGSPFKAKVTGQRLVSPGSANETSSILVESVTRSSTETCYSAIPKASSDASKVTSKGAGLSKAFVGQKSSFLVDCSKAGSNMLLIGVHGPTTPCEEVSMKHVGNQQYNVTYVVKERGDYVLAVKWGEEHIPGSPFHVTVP
# UniProt Q06546: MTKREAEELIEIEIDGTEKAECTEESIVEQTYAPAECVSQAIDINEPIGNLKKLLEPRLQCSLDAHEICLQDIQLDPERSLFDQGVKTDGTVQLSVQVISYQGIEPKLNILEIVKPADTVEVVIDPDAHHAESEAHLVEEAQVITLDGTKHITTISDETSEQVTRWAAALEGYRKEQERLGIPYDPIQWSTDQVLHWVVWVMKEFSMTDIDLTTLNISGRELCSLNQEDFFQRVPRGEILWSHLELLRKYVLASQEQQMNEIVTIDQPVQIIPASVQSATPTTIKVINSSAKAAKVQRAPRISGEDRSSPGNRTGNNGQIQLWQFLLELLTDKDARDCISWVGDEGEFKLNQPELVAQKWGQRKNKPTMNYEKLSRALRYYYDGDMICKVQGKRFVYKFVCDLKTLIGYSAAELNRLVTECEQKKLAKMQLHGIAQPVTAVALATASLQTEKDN
# UniProt Q8NFF5: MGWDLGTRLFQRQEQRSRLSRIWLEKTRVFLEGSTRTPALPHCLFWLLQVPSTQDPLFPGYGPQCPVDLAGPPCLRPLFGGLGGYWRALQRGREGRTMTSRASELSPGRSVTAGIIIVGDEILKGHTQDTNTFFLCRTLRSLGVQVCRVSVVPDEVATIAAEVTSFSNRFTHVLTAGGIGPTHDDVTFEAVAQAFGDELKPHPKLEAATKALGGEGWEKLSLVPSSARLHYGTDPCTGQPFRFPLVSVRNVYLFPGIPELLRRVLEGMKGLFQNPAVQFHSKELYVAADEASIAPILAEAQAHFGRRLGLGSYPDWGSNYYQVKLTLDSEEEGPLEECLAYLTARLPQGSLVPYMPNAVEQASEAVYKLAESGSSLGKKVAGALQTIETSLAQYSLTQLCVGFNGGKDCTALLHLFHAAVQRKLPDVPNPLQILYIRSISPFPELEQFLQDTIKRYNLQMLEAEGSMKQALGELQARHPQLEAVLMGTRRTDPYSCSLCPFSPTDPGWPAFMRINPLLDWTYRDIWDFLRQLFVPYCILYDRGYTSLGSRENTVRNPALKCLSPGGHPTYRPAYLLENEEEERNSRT
# UniProt Q06547, whole entry, looked up: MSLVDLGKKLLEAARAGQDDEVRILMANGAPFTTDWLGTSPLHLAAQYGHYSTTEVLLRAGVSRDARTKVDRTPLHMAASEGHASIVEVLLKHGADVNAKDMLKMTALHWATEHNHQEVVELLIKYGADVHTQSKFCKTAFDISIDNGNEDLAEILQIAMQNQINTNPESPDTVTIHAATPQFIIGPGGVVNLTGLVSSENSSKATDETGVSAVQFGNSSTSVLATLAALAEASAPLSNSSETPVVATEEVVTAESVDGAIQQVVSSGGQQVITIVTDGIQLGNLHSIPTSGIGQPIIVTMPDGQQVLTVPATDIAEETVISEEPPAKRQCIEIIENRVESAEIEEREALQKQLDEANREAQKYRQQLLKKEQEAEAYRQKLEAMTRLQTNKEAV
# UniProt Q53EP0: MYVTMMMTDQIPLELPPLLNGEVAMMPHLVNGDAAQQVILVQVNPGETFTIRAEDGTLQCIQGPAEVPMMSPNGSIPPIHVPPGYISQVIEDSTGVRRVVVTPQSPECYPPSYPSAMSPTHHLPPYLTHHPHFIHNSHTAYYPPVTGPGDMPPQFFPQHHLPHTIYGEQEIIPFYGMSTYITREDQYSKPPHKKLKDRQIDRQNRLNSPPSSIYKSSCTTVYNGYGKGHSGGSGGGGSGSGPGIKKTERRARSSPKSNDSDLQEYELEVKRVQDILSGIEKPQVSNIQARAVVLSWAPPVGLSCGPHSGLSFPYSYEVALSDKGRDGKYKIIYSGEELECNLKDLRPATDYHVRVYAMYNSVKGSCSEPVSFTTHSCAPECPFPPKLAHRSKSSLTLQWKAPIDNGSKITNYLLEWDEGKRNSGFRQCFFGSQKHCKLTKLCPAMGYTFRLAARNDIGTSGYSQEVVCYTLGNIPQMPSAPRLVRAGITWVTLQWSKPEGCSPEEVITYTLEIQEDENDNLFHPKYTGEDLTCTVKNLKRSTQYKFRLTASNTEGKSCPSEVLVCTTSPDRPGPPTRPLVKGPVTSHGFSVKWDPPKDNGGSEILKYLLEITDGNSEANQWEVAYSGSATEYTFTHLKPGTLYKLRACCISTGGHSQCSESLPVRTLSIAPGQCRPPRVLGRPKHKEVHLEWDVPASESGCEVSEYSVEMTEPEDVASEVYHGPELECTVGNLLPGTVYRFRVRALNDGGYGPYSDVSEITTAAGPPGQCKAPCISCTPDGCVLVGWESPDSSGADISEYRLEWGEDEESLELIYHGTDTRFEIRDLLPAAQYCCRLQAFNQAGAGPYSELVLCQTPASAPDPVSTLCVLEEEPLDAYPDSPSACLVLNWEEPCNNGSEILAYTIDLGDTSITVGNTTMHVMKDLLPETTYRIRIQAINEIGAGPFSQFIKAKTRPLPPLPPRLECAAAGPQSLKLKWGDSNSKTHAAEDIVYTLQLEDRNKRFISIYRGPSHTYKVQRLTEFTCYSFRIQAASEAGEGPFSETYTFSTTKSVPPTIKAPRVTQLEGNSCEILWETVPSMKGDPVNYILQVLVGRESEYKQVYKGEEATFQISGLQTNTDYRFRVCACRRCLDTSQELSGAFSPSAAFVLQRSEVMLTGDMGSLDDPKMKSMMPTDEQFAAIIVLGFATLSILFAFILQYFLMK
# UniProt P35637: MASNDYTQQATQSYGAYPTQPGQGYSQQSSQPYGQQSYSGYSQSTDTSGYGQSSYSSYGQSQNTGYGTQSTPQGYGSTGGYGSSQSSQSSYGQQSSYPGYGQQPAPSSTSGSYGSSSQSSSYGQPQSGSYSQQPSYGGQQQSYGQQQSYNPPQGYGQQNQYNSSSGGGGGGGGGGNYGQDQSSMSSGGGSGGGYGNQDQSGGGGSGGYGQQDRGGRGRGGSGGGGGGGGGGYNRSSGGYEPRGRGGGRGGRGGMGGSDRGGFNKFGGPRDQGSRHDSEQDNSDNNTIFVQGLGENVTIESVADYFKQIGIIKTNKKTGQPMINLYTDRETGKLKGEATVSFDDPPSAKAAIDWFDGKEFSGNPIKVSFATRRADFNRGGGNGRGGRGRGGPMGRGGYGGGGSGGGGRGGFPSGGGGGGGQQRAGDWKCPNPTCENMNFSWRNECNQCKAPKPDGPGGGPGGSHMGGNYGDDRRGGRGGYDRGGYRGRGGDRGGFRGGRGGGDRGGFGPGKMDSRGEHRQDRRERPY
# UniProt Q9BYC5: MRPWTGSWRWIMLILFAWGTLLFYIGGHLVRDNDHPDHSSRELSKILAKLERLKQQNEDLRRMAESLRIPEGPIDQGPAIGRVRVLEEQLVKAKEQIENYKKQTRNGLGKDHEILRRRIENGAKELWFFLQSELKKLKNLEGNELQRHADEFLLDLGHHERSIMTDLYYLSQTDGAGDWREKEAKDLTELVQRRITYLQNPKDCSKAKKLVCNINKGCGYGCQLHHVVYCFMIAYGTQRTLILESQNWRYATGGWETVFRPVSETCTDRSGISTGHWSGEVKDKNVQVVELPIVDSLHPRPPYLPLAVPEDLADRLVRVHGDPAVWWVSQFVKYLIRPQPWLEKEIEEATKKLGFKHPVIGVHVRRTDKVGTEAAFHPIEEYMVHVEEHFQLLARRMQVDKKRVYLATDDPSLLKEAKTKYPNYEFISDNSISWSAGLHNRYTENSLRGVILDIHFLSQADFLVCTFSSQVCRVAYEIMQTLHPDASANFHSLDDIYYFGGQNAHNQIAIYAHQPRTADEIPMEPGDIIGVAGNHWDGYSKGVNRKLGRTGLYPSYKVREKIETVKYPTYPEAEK
# The list shows a part of the results.
# Compound: CC1Cc2ccccc2N1C(=O)C1CCCN(C1)C(=O)CCl (mixture of isomers) [TRIM25 ligand 11 (diastereomer mixture)]
# Test: probe-labelled cysteine peptide fold change vs DMSO (competition) (log2 fold change); higher = less target engagement (more negative = stronger competition)
# Details: THP-1, incubation time: 4 h
# 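Also: competitive chemoproteomic profiling in live THP-1 cells with an iodoacetamide desthiobiotin (IA-DTB) probe, comparing probe-labelled peptide intensities in compound-treated cells against DMSO-treated controls.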
Target,probe-labelled cysteine peptide fold change (10 µM),probe-labelled cysteine peptide fold change (50 µM)
FLYWCH2_Q96CP2_64_GVHCVMSLGVPGPATLAK (UniProt Q96CP2),-0.275,-0.158
FHL2_Q14192_92_EDQLLCTDCYSNEYSSK (UniProt Q14192),-0.0328,-0.135
FKBP1A_P62942_23_GQTCVVHYTGMLEDGK (UniProt P62942),-0.059,-0.058
FRG1_Q14331_159_CNEAGDIEAK (UniProt Q14331),-0.0781,-0.137
FLNB_O75369_2057_VDIQTEDLEDGTCK (UniProt O75369),0.0218,0.0249
GABPA_Q06546_388_YYYDGDMICK (UniProt Q06546),0.0462,0.0814
FLAD1_Q8NFF5_236_LHYGTDPCTGQPFRFPLVSVR (UniProt Q8NFF5),-0.0344,-0.0155
FLII_Q13045_933+938_LPEEEFGHFYTQDCYVFLCR (UniProt Q13045),-0.148,0.135
G6PD_P11413_232_DNIACVILTFK (UniProt P11413),0.17,0.466
FHL1_Q13642-1_255_CSVNLANKR (UniProt Q13642),-0.0465,0.0327
GABPB1_Q06547_331_QCIEIIENRVESAEIEER (UniProt Q06547),-0.221,-0.162
FKBP5_Q13451_215_MQREEQCILYLGPR (UniProt Q13451),-0.162,-0.118
FNDC3B_Q53EP0_558_SCPSEVLVCTTSPDRPGPPTRPLVK (UniProt Q53EP0),-0.059,-0.0636
FUS_P35637_428_CPNPTCENMNFSWR (UniProt P35637),-0.139,-0.114
FIG4_Q92562_652_HLPLPYDEVICAVNLK (UniProt Q92562),0.159,0.132
FLII_Q13045_808_LGQELCGMLHRPR (UniProt Q13045),-0.202,-0.125
FUT8_Q9BYC5_212_KLVCNINK (UniProt Q9BYC5),-0.175,-0.156
FLNB_O75369_1326_VAVTEGCQPSR (UniProt O75369),-0.0217,-0.0287
FHOD1_Q9Y613_977_IMQFCHTLR (UniProt Q9Y613),0.00186,0.415
FHL2_Q14192_7_FDCHHCNESLFGK (UniProt Q14192),0.0456,0.126

# Reformatted as tab-separated lines: part of the list above
Target	probe-labelled cysteine peptide fold change (10 µM)	probe-labelled cysteine peptide fold change (50 µM)
FLAD1_Q8NFF5_236_LHYGTDPCTGQPFRFPLVSVR (UniProt Q8NFF5)	-0.0344	-0.0155
FLII_Q13045_933+938_LPEEEFGHFYTQDCYVFLCR (UniProt Q13045)	-0.148	0.135
G6PD_P11413_232_DNIACVILTFK (UniProt P11413)	0.17	0.466
FHL1_Q13642-1_255_CSVNLANKR (UniProt Q13642)	-0.0465	0.0327
GABPB1_Q06547_331_QCIEIIENRVESAEIEER (UniProt Q06547)	-0.221	-0.162
FKBP5_Q13451_215_MQREEQCILYLGPR (UniProt Q13451)	-0.162	-0.118
FNDC3B_Q53EP0_558_SCPSEVLVCTTSPDRPGPPTRPLVK (UniProt Q53EP0)	-0.059	-0.0636
FUS_P35637_428_CPNPTCENMNFSWR (UniProt P35637)	-0.139	-0.114
FIG4_Q92562_652_HLPLPYDEVICAVNLK (UniProt Q92562)	0.159	0.132
FLII_Q13045_808_LGQELCGMLHRPR (UniProt Q13045)	-0.202	-0.125
FUT8_Q9BYC5_212_KLVCNINK (UniProt Q9BYC5)	-0.175	-0.156
FLNB_O75369_1326_VAVTEGCQPSR (UniProt O75369)	-0.0217	-0.0287

# Carrying on.

Target,probe-labelled cysteine peptide fold change (10 µM),probe-labelled cysteine peptide fold change (50 µM)
FXR1_P51114_211_HLECTK (UniProt P51114),-0.0391,-0.0989
FXR1_P51114_129+141_CTVDVPEDLREACANENAHK (UniProt P51114),-0.154,-0.0181
FLNB_O75369_1868_AEISCIDNK (UniProt O75369),-0.0828,0.152
FLII_Q13045_1265_CFHAWSAFCK (UniProt Q13045),0.157,0.188
GABPA_Q06546_69_LQCSLDAHEICLQDIQLDPER (UniProt Q06546),0.125,0.116
FNBP1_Q96RU3_130_AQQHIETCWK (UniProt Q96RU3),-0.0634,-0.014
FKBP5_Q13451_107_GEICHLLCKPEYAYGSAGSLPK (UniProt Q13451),-0.00489,0.232
FLYWCH2_Q96CP2_132_TEDSGLAAGPPEAAGENFAPCSVAPGK (UniProt Q96CP2),-0.118,-0.403
FKBP2_P26885_42_VDHCPIK (UniProt P26885),-0.198,-0.254
FHOD1_Q9Y613_373_SLEGGGCPAR (UniProt Q9Y613),0.118,0.0577
FGD3_Q5JSP0_655_TIPLPSCK (UniProt Q5JSP0),-0.133,0.104
FHOD1_Q9Y613_43_RAPTCSLDGALPLGAQIPAVHR (UniProt Q9Y613),-0.183,-0.0603
FOXM1_Q08050_56_EVAESNSCK (UniProt Q08050),0.0529,-0.0796
FKBP3_Q00688_133_KGDVVHCWYTGTLQDGTVFDTNIQTSAK (UniProt Q00688),-0.197,-0.269
FUBP1_Q96AE4_132_IQQESGCK (UniProt Q96AE4),0.0917,0.446
FUBP1_Q96AE4_332_CQHAAEIITDLLR (UniProt Q96AE4),-0.0805,0.122
G6PD_P11413_269_DVMQNHLLQMLCLVAMEK (UniProt P11413),0.246,0.175
FLNB_O75369_991_KVVPCLVTPVTGR (UniProt O75369),-0.0645,-0.0535
FOCAD_Q5VW36_1243_LLVENSQQTSGFALALGNIVHGLSVCGHGK (UniProt Q5VW36),0.132,-0.122
FLII_Q13045_982_QPEEDFQCIVYFWQGR (UniProt Q13045),0.538,0.154
